Results published in article PMC7060239.
Positions count from the first letter of the chain named. These are yes or no findings as the source states them, for the method shown. For some of these results: In cells and extracts the contact can be indirect.

Amino acid sequences for entries named in this document (tags omitted). A change or cut given only in a name is not applied to a line headed by its entry.
UniProt P13864: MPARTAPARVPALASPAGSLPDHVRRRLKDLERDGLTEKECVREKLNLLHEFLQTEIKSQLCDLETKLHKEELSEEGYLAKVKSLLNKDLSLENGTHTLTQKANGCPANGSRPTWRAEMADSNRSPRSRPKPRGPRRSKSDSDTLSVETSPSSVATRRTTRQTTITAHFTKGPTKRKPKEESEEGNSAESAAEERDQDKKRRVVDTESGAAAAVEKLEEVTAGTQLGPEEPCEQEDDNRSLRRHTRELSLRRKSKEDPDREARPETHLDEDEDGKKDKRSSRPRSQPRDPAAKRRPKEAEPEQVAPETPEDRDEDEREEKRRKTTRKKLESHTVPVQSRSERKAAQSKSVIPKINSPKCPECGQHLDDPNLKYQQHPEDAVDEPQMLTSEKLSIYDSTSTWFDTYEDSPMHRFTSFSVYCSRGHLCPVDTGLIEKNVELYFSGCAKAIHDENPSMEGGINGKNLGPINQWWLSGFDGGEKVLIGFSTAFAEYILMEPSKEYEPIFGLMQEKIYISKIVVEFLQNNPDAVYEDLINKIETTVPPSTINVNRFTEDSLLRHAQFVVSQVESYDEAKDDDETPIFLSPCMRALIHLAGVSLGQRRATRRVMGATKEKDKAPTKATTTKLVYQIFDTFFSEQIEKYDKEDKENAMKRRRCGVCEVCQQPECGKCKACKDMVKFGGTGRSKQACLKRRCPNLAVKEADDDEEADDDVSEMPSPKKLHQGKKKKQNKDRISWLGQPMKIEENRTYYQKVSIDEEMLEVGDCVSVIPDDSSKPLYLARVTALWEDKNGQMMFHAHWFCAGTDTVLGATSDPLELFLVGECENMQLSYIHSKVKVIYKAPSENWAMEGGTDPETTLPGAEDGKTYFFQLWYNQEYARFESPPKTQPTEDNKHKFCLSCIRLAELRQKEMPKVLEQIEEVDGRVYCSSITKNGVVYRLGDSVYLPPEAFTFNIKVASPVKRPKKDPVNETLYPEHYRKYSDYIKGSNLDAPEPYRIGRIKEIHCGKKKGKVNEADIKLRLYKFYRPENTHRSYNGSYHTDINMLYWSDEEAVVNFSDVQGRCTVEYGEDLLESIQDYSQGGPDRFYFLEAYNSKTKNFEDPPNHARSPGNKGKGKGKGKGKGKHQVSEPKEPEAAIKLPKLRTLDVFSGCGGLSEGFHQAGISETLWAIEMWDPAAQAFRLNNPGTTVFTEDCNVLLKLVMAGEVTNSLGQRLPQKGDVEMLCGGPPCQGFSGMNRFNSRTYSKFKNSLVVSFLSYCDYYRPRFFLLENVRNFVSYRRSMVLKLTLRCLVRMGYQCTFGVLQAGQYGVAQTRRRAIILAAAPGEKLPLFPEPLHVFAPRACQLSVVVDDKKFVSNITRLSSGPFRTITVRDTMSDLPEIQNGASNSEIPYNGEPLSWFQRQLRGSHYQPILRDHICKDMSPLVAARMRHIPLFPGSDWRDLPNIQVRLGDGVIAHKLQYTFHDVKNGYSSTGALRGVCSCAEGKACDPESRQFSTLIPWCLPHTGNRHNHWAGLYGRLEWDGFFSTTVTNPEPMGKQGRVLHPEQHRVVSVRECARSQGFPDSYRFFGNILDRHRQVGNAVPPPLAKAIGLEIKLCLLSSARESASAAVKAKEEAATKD
UniProt Q15004: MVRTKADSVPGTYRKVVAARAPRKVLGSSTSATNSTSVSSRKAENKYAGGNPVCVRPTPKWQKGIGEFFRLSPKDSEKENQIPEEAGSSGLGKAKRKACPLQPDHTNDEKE

Experiments:
[1] = biological target: T1, mPAF15 K15R/K24R (Paf15 KRKR mESCs) (mouse (endogenous in J1 mESCs)) (UniProt Q9CQX4); experiment: co-IP; endogenous mPAF15 precipitated with anti-mPAF15 antibody (sc-390515) and protein G beads from nuclear extracts of WT and KRKR mESCs; immunoblot
T1 sequence: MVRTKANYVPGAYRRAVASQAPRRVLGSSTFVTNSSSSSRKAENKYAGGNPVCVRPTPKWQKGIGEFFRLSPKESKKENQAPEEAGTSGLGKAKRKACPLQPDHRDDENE

[2] = biological target: T2, PHD finger of human UHRF1 (residues 299–366) (human) (UniProt Q96T88); experiment: ITC; hPHD and PAF15_(2-11) or H3 peptides; VP-ITC; 10 mM HEPES-NaOH (pH 7.5), 150 mM NaCl, 0.25 mM TCEP; one-site model; both purified
T2 sequence: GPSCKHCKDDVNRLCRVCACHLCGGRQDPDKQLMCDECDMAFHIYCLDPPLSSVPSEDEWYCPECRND

hPHD-D334A/D337A (human) = biological target: T3, hPHD-D334A/D337A (human) (UniProt Q96T88); experiment: as above
T3 sequence: T2 sequence with D36A, D39A

binding [2] | Substance | further results
– | endogenous murine DNMT1 (from UniProt P13864 1-1620) (enzyme) | binding [1]: no binding
no binding | hPAF15_(2-11)-R3A peptide (from UniProt Q15004 2-11) | –
no binding | hPAF15_(2-11)-T4D peptide (from UniProt Q15004 2-11) | –
– | human PAF15 (residues 2–11) peptide (from UniProt Q15004 2-11) | binding (hPHD-D334A/D337A (human)): no binding
